These results are taken from paper PMC7205318.

Sequences of proteins named here, by UniProt entry; tags and fusion partners are left off. A change or cut given only in a name is not applied to a line headed by its entry. A line that says so, or that is headed by a name, gives the form on record, which may keep a tag or linker.
UniProt P51592: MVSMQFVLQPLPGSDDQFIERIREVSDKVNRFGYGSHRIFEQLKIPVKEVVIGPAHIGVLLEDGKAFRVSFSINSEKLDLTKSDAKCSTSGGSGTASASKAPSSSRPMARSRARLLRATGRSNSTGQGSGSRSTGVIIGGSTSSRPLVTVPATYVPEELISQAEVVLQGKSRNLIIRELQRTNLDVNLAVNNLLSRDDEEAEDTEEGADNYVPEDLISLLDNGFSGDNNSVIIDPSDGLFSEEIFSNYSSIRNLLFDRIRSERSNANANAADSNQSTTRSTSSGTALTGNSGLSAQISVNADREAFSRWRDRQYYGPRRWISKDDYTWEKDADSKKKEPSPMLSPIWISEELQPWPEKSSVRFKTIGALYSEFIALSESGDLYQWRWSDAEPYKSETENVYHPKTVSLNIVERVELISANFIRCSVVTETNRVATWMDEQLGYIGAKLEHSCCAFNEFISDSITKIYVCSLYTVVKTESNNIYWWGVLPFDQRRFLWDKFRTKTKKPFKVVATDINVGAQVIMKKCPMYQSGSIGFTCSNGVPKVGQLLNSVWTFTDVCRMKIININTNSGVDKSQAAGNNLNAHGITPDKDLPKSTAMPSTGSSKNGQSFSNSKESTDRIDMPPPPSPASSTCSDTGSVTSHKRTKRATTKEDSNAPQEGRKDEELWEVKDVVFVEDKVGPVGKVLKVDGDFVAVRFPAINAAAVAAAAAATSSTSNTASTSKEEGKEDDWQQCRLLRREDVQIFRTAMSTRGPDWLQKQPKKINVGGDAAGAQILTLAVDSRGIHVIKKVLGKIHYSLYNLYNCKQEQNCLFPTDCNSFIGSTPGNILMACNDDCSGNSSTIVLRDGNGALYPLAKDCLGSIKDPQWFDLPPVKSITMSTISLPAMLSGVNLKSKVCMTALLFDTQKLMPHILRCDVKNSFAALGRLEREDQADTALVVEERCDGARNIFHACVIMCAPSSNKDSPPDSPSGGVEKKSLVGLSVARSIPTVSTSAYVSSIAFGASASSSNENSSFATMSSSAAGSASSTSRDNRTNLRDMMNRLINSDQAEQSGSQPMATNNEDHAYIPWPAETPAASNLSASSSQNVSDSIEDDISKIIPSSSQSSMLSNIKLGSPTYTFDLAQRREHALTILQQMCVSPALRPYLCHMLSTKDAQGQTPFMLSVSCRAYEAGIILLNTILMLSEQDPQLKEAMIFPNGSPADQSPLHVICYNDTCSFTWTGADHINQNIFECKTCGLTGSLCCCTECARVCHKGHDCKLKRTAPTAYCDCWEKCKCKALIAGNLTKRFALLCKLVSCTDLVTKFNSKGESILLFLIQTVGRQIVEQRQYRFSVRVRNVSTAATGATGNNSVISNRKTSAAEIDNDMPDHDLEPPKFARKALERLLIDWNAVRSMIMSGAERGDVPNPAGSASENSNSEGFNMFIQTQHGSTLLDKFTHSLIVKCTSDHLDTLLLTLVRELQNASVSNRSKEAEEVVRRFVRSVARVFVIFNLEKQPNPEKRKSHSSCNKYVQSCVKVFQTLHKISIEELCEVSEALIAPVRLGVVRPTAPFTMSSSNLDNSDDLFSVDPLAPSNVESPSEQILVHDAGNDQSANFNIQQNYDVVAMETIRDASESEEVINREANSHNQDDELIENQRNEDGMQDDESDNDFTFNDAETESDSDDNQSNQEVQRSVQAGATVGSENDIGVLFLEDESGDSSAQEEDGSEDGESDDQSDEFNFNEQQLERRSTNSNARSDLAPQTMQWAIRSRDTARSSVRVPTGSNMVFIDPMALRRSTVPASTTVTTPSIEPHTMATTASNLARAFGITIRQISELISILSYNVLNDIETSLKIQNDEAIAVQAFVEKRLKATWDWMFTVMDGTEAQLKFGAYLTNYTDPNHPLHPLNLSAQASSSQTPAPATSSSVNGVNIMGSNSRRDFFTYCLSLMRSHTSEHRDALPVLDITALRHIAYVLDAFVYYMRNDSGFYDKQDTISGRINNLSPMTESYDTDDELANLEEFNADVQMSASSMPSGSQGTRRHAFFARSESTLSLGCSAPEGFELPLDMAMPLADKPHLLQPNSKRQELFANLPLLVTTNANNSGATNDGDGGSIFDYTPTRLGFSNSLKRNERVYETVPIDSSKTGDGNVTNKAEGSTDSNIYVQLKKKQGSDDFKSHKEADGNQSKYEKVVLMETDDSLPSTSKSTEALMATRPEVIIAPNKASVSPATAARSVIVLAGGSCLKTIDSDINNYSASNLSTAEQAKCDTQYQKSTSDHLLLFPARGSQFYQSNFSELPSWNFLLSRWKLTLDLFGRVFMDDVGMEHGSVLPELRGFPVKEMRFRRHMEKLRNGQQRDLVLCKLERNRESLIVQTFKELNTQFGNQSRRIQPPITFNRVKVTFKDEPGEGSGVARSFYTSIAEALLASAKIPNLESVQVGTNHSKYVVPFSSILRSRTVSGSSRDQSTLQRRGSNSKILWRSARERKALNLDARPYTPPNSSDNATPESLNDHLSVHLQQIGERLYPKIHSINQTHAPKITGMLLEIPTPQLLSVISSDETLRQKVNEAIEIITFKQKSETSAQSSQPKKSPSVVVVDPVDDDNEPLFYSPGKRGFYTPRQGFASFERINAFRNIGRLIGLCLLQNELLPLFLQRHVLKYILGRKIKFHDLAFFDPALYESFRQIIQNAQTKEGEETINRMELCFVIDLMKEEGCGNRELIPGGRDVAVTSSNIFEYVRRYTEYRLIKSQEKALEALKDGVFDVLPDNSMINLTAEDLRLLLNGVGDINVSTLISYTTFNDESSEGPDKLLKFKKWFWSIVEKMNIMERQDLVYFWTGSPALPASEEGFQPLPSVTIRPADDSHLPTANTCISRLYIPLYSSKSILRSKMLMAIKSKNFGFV
V5-tagged Hyd-CS (Hyd-CS-V5) (P51592, form named): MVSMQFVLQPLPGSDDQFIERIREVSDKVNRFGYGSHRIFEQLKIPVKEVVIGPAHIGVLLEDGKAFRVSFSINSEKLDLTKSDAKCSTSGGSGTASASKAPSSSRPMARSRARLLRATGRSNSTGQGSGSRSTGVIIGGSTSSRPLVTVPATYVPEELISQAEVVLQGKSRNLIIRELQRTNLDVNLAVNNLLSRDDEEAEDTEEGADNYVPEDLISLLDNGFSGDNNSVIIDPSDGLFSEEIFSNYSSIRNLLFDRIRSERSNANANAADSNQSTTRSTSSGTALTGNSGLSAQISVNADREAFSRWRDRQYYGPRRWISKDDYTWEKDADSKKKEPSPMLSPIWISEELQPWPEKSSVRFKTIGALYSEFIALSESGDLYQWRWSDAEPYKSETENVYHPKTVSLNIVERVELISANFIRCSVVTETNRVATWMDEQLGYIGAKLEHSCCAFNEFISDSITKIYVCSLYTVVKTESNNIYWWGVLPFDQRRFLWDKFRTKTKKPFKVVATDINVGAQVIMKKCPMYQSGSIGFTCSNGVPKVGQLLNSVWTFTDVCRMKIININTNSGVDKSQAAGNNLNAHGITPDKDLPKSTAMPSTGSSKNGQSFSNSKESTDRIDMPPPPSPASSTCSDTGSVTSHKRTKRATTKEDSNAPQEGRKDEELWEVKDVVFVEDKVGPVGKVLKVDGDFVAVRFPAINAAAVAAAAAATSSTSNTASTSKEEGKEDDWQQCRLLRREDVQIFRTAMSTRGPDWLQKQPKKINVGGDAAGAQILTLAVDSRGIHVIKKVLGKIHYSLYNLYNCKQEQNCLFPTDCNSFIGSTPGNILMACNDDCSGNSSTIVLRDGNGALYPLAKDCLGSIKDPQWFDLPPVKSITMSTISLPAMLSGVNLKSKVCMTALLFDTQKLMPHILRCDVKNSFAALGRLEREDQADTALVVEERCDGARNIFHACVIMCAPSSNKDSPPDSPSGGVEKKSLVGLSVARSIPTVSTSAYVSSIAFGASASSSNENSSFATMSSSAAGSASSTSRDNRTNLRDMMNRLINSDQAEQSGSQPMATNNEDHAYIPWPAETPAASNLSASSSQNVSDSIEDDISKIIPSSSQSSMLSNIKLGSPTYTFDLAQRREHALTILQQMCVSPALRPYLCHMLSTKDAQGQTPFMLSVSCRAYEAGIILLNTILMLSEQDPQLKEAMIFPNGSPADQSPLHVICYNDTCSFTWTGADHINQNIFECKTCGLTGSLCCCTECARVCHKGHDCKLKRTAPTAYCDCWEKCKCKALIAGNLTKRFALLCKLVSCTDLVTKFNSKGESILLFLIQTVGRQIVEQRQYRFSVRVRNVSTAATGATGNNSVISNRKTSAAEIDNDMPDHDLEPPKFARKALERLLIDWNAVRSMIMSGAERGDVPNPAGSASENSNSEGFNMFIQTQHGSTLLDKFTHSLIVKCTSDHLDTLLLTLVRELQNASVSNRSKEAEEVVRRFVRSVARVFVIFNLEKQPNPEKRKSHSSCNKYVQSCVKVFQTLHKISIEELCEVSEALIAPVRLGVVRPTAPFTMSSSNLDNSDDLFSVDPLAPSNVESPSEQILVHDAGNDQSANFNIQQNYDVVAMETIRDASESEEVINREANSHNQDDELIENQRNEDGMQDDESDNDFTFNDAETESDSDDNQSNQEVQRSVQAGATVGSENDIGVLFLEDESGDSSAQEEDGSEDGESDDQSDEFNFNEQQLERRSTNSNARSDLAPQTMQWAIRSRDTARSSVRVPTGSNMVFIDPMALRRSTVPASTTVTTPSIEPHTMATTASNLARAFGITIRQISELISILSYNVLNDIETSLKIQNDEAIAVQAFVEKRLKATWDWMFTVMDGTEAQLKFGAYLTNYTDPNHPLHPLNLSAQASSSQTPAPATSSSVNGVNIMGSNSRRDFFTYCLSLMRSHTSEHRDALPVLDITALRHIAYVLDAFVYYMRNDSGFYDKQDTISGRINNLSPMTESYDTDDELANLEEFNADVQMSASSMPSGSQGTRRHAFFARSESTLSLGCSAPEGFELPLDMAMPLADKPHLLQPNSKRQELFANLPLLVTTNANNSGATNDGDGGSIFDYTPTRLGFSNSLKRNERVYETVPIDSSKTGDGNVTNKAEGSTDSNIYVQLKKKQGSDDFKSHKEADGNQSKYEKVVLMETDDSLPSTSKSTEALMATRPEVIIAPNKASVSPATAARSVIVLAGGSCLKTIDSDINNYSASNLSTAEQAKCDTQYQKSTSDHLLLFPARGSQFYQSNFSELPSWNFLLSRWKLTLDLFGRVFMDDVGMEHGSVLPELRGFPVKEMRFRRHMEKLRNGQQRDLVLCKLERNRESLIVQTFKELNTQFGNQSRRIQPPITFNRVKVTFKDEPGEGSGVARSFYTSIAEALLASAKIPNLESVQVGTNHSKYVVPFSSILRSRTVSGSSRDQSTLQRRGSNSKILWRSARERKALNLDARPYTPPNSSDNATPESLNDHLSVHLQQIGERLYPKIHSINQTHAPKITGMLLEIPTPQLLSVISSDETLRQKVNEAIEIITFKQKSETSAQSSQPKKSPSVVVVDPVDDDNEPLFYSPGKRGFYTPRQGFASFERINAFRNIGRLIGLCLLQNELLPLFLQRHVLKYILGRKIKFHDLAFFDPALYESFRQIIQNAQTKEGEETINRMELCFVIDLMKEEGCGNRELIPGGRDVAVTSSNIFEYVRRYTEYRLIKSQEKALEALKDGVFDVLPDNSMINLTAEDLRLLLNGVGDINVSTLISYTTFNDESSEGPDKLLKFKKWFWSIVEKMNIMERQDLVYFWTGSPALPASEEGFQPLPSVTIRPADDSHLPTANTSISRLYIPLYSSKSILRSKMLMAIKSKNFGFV
UniProt Q9VYG2: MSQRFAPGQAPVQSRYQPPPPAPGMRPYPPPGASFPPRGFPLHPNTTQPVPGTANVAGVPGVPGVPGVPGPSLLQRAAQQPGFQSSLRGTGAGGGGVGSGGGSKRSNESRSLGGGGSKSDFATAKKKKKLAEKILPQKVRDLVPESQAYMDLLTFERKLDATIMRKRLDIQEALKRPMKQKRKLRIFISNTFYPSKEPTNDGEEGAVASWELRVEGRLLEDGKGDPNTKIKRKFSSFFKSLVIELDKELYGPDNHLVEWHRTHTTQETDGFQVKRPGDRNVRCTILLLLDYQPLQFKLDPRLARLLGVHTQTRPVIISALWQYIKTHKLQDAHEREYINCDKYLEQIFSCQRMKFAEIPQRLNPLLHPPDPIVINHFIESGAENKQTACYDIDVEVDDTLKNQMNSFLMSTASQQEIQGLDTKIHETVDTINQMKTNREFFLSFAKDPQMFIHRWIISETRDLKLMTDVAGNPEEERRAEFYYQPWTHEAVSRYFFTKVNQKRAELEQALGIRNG

Results are given in words; binding and its absence hold for the method and conditions named. In cells and extracts the contact can be indirect. Some binding calls cover weakened binding; strength is not graded here. For some of these results: Tags and fused reporters may be left off the sequences shown.

Experiment [1] has as its target T1, Akirin (Drosophila melanogaster) (UniProt Q9VS59).
T1 sequence: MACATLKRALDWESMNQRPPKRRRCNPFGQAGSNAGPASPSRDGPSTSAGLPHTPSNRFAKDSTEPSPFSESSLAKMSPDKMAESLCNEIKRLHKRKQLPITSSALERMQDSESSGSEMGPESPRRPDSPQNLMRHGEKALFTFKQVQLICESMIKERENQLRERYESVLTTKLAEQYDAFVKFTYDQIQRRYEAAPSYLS
Put plainly: co-IP; S2 cells transiently transfected with Akirin, Gal4, Hyd-V5 and/or Hyd-CS-V5 plasmids; lysate (Pierce IP Lysis Buffer) immunoprecipitated with anti-Akirin overnight at 4°C; Western blot with anti-V5 or anti-Akirin.

Experiment [2] addresses T2, Akirin-V5 (Drosophila melanogaster) (UniProt Q9VS59).
T2 sequence: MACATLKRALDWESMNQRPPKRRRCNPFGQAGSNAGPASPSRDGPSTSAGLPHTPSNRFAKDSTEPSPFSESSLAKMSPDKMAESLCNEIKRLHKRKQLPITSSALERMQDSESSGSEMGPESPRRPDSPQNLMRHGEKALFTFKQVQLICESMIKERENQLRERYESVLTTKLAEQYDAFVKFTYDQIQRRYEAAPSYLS
Kind of experiment: co-IP; S2 cells transiently transfected with Akirin-V5 and Rel-HA or Bap60-HA plasmids and dsRNA targeting GFP or Hyd; lysate immunoprecipitated with anti-V5 coupled agarose beads; Western blot with anti-HA or anti-V5. In general terms: In western blotting, separated proteins are transferred to a membrane and probed.

The target in experiment [3] is T1, Akirin (Drosophila melanogaster). Put plainly: co-IP; interaction assay between Diap2 and Akirin, a control to the Hyd-Akirin co-immunoprecipitation; details only in S3 Fig.

On to “V5-tagged Hyperplastic discs (Hyd-V5) (from UniProt P51592 1-2885) (enzyme)”, for which the binding entry in experiment [1] is on record as “binds”.
For Bap60-HA (from UniProt Q9VYG2 1-515), in experiment [2], the binding result was “binds”.
Take “V5-tagged Hyd-CS (Hyd-CS-V5) (from UniProt P51592 1-2885) (enzyme)”: in experiment [1], the binding entry is listed as “no binding”.

B1: Death-associated inhibitor of apoptosis 2 (Diap2) (enzyme, UniProt Q24307 1-498)
chain: MTELGMELESVRLATFGEWPLNAPVSAEDLVANGFFATGNWLEAECHFCHVRIDRWEYGDQVAERHRRSSPICSMVLAPNHCGNVPRSQESDNEGNSVVDSPESCSCPDLLLEANRLVTFKDWPNPNITPQALAKAGFYYLNRLDHVKCVWCNGVIAKWEKNDNAFEEHKRFFPQCPRVQMGPLIEFATGKNLDELGIQPTTLPLRPKYACVDARLRTFTDWPISNIQPASALAQAGLYYQKIGDQVRCFHCNIGLRSWQKEDEPWFEHAKWSPKCQFVLLAKGPAYVSEVLATTAANASSQPATAPAPTLQADVLMDEAPAKEALALGIDGGVVRNAIQRKLLSSGCAFSTLDELLHDIFDDAGAGAALEVREPPEPSAPFIEPCQATTSKAASVPIPVADSIPAKPQAAEAVANISKITDEIQKMSVATPNGNLSLEEENRQLKDARLCKVCLDEEVGVVFLPCGHLATCNQCAPSVANCPMCRADIKGFVRTFLS
For B1, the binding result in experiment [3] is “no binding”.
